# According to PubChem BioAssay AID540276 (National Center for Advancing Translational Sciences (NCATS), 2011):
# Values joined by “and” are separate entries in the source; they are usually repeats but may differ in a detail not shown here. Equal entries are not always repeated. Out of some 300,000 compounds screened, about 5,400 (1.8%) were called active. Inconclusive results, whose numbers are uncertain, are shown with a selection of clear calls. Calls come from the whole dose curve; tested in HEK293 cells. Potencies beside an inconclusive call are fits to weak or partial responses and may not hold up.
# Assay: qHTS for inhibitors of binding or entry into cells for Marburg Virus
# Conditions: Marburg virus pseudotyped entry inhibition, cell reporter; activity change, negative = inhibition: at 37.8 µM (top of the series) unless noted
# % is set by controls: 0 for no effect and ±100 for the full control effect; potency is the fitted concentration of half-maximal effect.
SMILES,Potency,"activity change, negative = inhibition"
Cc1cccc(NC(=S)NCCN2CCOCC2)c1C,"inconclusive: 6.31 µM [inhibitor, single point]",
Cc1c(Cl)cccc1NC(=O)Cn1cc(C(=O)c2cccs2)c2ccccc21,"inconclusive: 11.2 µM [inhibitor, partial curve, poor fit]",
CCOC(=O)COn1c(SCC(=O)OCC)nc2ccccc2c1=O,"inconclusive: 29.1 µM [activator, single point]",
Cc1ccc2cccc(NC(=O)COc3ccccc3Cl)c2n1,,inactive: 4.64% [at 46.1 µM]
C1CSC2(N1)C1CC3CC(C1)CC2C3 (centres undefined),,inactive: 0%
COc1ccc(N2CCN(S(=O)(=O)c3ccc(OC)c(C(=O)N4CCCC4)c3)CC2)cc1,,inactive: -15.9% [at 46.1 µM]
Cc1ccc2nc(N(CCCN(C)C)C(=O)c3ccc4c(c3)CCCC4)sc2c1,"inconclusive: 35.5 µM [inhibitor, single point]",
CC1CCCCC1NC(=O)C1CCN(c2c3c(nc4ncnn24)CCC3)CC1 (centres undefined),,inactive: -26.4%
O=C(Nc1cccc(O)c1)c1noc2c1CCc1ccccc1-2,"inconclusive: 20.6 µM [inhibitor, partial curve] and inconclusive: 1.26 µM [activator, full curve, poor fit]",
COc1cc(NC(=S)NCCCN2CCOCC2)cc(OC)c1,"inconclusive: 1.26 µM [inhibitor, single point]",
COc1ccc(NC(=O)CN(C)CC(=O)Nc2cccc(F)c2)cc1Cl,"inconclusive: 14.1 µM [inhibitor, single point]",
Cc1ccn(C(=O)c2cc3c(C)nn(-c4ccccc4)c3s2)n1,"inconclusive: 5.01 µM [activator, single point]",
COc1ccccc1NCCC(=O)OCC(=O)NC1CCCCCC1,"inconclusive: 3.55 µM [inhibitor, single point]",
CN(C(=O)Oc1ccc([N+](=O)[O-])cc1)c1ccccc1,"inconclusive: 6.31 µM [activator, single point]",
CCOC(=O)c1ccc(CSc2nnc(-c3ccncc3)n2N)cc1,,inactive: -12.3%
CCOc1ccc2[nH]c(=O)c(CN(CCO)C3(c4nnnn4C4CCCCC4)CCCCC3)cc2c1,"inconclusive: 3.55 µM [inhibitor, partial curve, poor fit]",
CCc1ccc(NC(=O)c2cnn(-c3ccccc3)c2C)cc1,active: 10 µM,
CN1C(=O)[C@@H]2[C@@H]3C[C@@H]([C@H]4ON=C(c5ccc(Cl)cc5Cl)[C@@H]34)[C@@H]2C1=O,,inactive: 15.4%
O=C(COc1ccc2ccccc2c1)Nc1nccs1,"inconclusive: 14.1 µM [inhibitor, single point]",
CCN(CC)CCCN(Cc1cc2cc3c(cc2[nH]c1=O)OCO3)C(=S)Nc1ccc(OC)cc1,"inconclusive: 35.5 µM [inhibitor, single point]",
C=CC[C@@H]1C=C[C@@H](Oc2ccc(OC)cc2)[C@@H](COC(=O)c2ccc(Br)cc2)O1,,inactive: -4.46% [at 14.2 µM]
CC(=O)c1cc2c(cc1NC(=O)CN1CCC(Cc3ccccc3)CC1)OCO2,"inconclusive: 0.224 µM [inhibitor, full curve, poor fit]",
COc1ccc(C(=O)Nc2cccc(C(=O)Nc3cc(C)ccn3)c2)cc1,"inconclusive: 7.08 µM [inhibitor, full curve, poor fit]",

# Structures from the list above that contain an NH in an aromatic ring (two):
SMILES,Potency,"activity change, negative = inhibition"
CCOc1ccc2[nH]c(=O)c(CN(CCO)C3(c4nnnn4C4CCCCC4)CCCCC3)cc2c1,"inconclusive: 3.55 µM [inhibitor, partial curve, poor fit]",
CCN(CC)CCCN(Cc1cc2cc3c(cc2[nH]c1=O)OCO3)C(=S)Nc1ccc(OC)cc1,"inconclusive: 35.5 µM [inhibitor, single point]",

# Next compounds:

SMILES,Potency,"activity change, negative = inhibition"
COc1cc(/C=N\NC(=O)C2COc3ccccc3O2)cc(OC)c1O (centres undefined),"inconclusive: 35.5 µM [inhibitor, single point]",
CCCCCCC(=O)c1c(C)[nH]c(C(=O)OCC)c1C,,inactive: 7.3%
Cc1nc(C)c(C(=O)N/N=C/c2cn(C)c3ccccc23)s1,"inconclusive: 12.6 µM [inhibitor, single point]",
COC(=O)C1=CNC=C(C(=O)OC)C1c1ccccc1Cl,,inactive: -13.2%
Cc1cccc(NC(NC(=O)c2ccccn2)C(Cl)(Cl)Cl)c1 (centres undefined),"inconclusive: 0.794 µM [inhibitor, full curve, poor fit]",
O=c1cc(C(F)(F)F)[nH]c2c(OC(F)(F)F)cccc12,"inconclusive: 35.5 µM [inhibitor, single point]",
CCN(Cc1ccccc1)C(=O)CN1C(=O)COc2ccc(S(=O)(=O)NC3CCCC3)cc21,"inconclusive: 6.31 µM [activator, partial curve, poor fit]",
CS(=O)(=O)c1cccc(C(=O)Oc2ccccc2)c1,"inconclusive: 35.5 µM [activator, single point]",
COC(=O)c1ccccc1S(=O)(=O)N1CCC(C(=O)N(C)CCOc2ccccc2)CC1,,inactive: 11.8% [at 46.1 µM]
COC(=O)c1c(NC(=O)CSc2ncn[nH]2)sc(C)c1C,"inconclusive: 1.58 µM [activator, partial curve, poor fit]",
O=C(OC1CCN(c2ccc([N+](=O)[O-])cc2)CC1)c1ccccc1,"inconclusive: 4.11 µM [inhibitor, single point]",
CCc1nn(CC(=O)Nc2ccc(Br)c(C)c2)c(=N)s1,"inconclusive: 6.31 µM [inhibitor, full curve, poor fit]",
COc1cc(C(=O)Nn2c(CC(C)C)nc3ccccc3c2=O)cc(OC)c1OC,,inactive: -6.04%
Cc1ccc(/C=N/NC(=O)c2ccccn2)s1,active: 6.51 µM,
CCOc1ccc2nc(NC(=O)CN3CCN(C)CC3)sc2c1,"inconclusive: 3.55 µM [activator, partial curve, poor fit]",
Cc1coc2cc3oc(=O)c(CC(=O)N(C)CC(=O)O)c(C)c3cc12,"inconclusive: 3.16 µM [inhibitor, single point]",
CNC(=O)CCC(=O)Nc1ccc(C(=O)OC)cc1,"inconclusive: 0.316 µM [activator, partial curve, poor fit]",
COc1ccccc1N1C(N)=NC(N)=NC12CCCCC2,"inconclusive: 1.26 µM [inhibitor, partial curve]",
CC(=O)Nc1ccc(NC2=C(Cl)C(=O)c3ccccc3C2=O)cc1,"inconclusive: 4.47 µM [inhibitor, full curve, poor fit]",
COc1ccc(-c2nn(-c3ccccc3)cc2/C=N/Nc2ccc(S(N)(=O)=O)cc2[N+](=O)[O-])cc1OC,"inconclusive: 31.6 µM [inhibitor, single point]",
CCOc1ccc(NC(=O)c2cc3ccccc3cc2OC)cc1,"inconclusive: 35.5 µM [inhibitor, single point]",
CN(C)/C=N/c1cc(=O)[nH]c(=O)n1C,"inconclusive: 29.1 µM [activator, single point]",
CC(=O)Nc1ccc(NC(=O)CSc2nc3ccccc3nc2N2CCCCC2)cc1,inactive,

SMILES,Potency,"activity change, negative = inhibition"
Cc1ccc(C)c(NC(=O)Cn2c(=O)n(CC3CCCO3)c(=O)c3ccccc32)c1 (centres undefined),,inactive: 3.12% [at 46.1 µM]
CCCOc1cccc(C2/C(=C(/O)c3ccccc3)C(=O)C(=O)N2CCN(C)C)c1 (centres undefined),"inconclusive: 1.58 µM [activator, single point]",
O=C(C[n+]1cc(-c2ccc(F)cc2)n2c1CCC2)Nc1nc(-c2ccccc2)cs1,"inconclusive: 8.91 µM [inhibitor, partial curve, poor fit]",
CCOC(=O)c1[nH]c(C)c(C(=O)NC(CC)Cc2ccccc2)c1C (centres undefined),,inactive: -25.3% [at 46.1 µM]
Cc1c(C(=O)N(C)C)sc2nc(-c3ccccn3)[nH]c(=O)c12,,inactive: 11.9%
CC(C)(C)NC(=O)c1cc(NC(=O)c2ccco2)cc(NC(=O)c2ccco2)c1,"inconclusive: 17.8 µM [inhibitor, single point]",
O=C(c1ccco1)N1CCN(C23CC4CC(CC(C4)C2)C3)CC1,"inconclusive: 35.5 µM [inhibitor, single point]",
CC(C)CN1C(=O)N(C)C(=O)C2N=CN=C21 (centres undefined),inactive,
CCOC(=O)c1c(NC(=O)Cn2nc(C(F)(F)F)cc2C)sc(C)c1C,"inconclusive: 1.26 µM [inhibitor, single point]",
Cc1ccc(C)c(NC(=O)c2ccc3ccccc3n2)c1,,inactive: 2.75% [at 46.1 µM]
Cc1ccc(NC(=S)N(Cc2ccco2)C(C)c2cccs2)c(Cl)c1 (centres undefined),"inconclusive: 35.5 µM [inhibitor, single point]",
CCN(CC(=O)Nc1c(F)cccc1F)C(=O)c1nc2nc(C)cc(C)n2n1,,inactive: -0.637%
O=C(CCCn1cnc([N+](=O)[O-])n1)Nc1cccc2ccccc12,,inactive: 10.7% [at 46.1 µM]
O=C(ONC(=O)C1C2C=CC(C2)C1C(=O)NOC(=O)c1ccccc1)c1ccccc1 (centres undefined),active: 3.98 µM,
CC1CCN(c2ccc(C(=O)Nc3nnc(C4CC4)s3)cc2[N+](=O)[O-])CC1,"inconclusive: 0.562 µM [activator, full curve, poor fit]",
CCc1ccc(NC(=O)c2ccccc2NC(=O)C2CCCO2)cc1 (centres undefined),"inconclusive: 18.3 µM [activator, partial curve]",
Cc1ccc(Cl)c2c1NC(=O)C2(O)CC(=O)c1ccc(Br)cc1 (centres undefined),,inactive: 29.5%
COc1cc(C2NC(=O)NC(c3ccccc3)=C2C(C)=O)ccc1OCC#N (centres undefined),"inconclusive: 9.2 µM [activator, partial curve, poor fit]",
C=C(C)COc1ccc2c(C)c(C)c(=O)oc2c1OCC(=C)C,"inconclusive: 35.5 µM [inhibitor, single point]",
Cc1ccc(NP(=O)(c2ccc(N(C)C)cc2NC(=O)c2cccs2)N2CCOCC2)cc1Cl (centres undefined),"inconclusive: 35.5 µM [inhibitor, single point]",
O=Cc1cc(-c2ccccc2)[nH]c1-c1ccccc1,,inactive: 9.28% [at 46.1 µM]
CCOC(=O)N1CCC(N2CCCC(C(=O)c3cccc(OC(C)C)c3)C2)CC1 (centres undefined),"inconclusive: 35.5 µM [inhibitor, single point]",
O=S(=O)(c1cccs1)N1CCN(c2ccnc3cc(Cl)ccc23)CC1,"inconclusive: 17.8 µM [inhibitor, single point]",

# Of the compounds above, these have bromine:
SMILES,Potency,"activity change, negative = inhibition"
C=CC[C@@H]1C=C[C@@H](Oc2ccc(OC)cc2)[C@@H](COC(=O)c2ccc(Br)cc2)O1,,inactive: -4.46% [at 14.2 µM]
CCc1nn(CC(=O)Nc2ccc(Br)c(C)c2)c(=N)s1,"inconclusive: 6.31 µM [inhibitor, full curve, poor fit]",
Cc1ccc(Cl)c2c1NC(=O)C2(O)CC(=O)c1ccc(Br)cc1 (centres undefined),,inactive: 29.5%
